# In the supplement of paper PMC11732987, “Enantioselective OTUD7B fragment discovery through chemoproteomics screening and high-throughput optimisation” (Communications Chemistry, 2025):
# Amino acid sequences for entries named in this document (tags omitted). A change or cut given only in a name is not applied to a line headed by its entry. Residues count along the entry.
# UniProt Q9P2B7: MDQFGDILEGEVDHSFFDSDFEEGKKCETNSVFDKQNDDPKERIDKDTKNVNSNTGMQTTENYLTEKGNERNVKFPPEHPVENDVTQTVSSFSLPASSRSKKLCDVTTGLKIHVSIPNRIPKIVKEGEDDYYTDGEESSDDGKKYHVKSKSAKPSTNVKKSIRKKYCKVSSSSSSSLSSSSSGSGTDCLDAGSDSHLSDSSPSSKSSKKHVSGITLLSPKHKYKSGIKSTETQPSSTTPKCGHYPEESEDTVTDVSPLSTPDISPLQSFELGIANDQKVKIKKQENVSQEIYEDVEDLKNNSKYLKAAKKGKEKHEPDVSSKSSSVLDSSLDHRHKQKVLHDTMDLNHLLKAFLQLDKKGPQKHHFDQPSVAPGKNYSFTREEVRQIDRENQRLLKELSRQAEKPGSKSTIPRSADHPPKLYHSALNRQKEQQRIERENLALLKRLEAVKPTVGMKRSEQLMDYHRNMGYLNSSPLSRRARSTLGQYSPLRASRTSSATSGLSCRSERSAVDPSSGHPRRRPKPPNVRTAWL
# UniProt P49454: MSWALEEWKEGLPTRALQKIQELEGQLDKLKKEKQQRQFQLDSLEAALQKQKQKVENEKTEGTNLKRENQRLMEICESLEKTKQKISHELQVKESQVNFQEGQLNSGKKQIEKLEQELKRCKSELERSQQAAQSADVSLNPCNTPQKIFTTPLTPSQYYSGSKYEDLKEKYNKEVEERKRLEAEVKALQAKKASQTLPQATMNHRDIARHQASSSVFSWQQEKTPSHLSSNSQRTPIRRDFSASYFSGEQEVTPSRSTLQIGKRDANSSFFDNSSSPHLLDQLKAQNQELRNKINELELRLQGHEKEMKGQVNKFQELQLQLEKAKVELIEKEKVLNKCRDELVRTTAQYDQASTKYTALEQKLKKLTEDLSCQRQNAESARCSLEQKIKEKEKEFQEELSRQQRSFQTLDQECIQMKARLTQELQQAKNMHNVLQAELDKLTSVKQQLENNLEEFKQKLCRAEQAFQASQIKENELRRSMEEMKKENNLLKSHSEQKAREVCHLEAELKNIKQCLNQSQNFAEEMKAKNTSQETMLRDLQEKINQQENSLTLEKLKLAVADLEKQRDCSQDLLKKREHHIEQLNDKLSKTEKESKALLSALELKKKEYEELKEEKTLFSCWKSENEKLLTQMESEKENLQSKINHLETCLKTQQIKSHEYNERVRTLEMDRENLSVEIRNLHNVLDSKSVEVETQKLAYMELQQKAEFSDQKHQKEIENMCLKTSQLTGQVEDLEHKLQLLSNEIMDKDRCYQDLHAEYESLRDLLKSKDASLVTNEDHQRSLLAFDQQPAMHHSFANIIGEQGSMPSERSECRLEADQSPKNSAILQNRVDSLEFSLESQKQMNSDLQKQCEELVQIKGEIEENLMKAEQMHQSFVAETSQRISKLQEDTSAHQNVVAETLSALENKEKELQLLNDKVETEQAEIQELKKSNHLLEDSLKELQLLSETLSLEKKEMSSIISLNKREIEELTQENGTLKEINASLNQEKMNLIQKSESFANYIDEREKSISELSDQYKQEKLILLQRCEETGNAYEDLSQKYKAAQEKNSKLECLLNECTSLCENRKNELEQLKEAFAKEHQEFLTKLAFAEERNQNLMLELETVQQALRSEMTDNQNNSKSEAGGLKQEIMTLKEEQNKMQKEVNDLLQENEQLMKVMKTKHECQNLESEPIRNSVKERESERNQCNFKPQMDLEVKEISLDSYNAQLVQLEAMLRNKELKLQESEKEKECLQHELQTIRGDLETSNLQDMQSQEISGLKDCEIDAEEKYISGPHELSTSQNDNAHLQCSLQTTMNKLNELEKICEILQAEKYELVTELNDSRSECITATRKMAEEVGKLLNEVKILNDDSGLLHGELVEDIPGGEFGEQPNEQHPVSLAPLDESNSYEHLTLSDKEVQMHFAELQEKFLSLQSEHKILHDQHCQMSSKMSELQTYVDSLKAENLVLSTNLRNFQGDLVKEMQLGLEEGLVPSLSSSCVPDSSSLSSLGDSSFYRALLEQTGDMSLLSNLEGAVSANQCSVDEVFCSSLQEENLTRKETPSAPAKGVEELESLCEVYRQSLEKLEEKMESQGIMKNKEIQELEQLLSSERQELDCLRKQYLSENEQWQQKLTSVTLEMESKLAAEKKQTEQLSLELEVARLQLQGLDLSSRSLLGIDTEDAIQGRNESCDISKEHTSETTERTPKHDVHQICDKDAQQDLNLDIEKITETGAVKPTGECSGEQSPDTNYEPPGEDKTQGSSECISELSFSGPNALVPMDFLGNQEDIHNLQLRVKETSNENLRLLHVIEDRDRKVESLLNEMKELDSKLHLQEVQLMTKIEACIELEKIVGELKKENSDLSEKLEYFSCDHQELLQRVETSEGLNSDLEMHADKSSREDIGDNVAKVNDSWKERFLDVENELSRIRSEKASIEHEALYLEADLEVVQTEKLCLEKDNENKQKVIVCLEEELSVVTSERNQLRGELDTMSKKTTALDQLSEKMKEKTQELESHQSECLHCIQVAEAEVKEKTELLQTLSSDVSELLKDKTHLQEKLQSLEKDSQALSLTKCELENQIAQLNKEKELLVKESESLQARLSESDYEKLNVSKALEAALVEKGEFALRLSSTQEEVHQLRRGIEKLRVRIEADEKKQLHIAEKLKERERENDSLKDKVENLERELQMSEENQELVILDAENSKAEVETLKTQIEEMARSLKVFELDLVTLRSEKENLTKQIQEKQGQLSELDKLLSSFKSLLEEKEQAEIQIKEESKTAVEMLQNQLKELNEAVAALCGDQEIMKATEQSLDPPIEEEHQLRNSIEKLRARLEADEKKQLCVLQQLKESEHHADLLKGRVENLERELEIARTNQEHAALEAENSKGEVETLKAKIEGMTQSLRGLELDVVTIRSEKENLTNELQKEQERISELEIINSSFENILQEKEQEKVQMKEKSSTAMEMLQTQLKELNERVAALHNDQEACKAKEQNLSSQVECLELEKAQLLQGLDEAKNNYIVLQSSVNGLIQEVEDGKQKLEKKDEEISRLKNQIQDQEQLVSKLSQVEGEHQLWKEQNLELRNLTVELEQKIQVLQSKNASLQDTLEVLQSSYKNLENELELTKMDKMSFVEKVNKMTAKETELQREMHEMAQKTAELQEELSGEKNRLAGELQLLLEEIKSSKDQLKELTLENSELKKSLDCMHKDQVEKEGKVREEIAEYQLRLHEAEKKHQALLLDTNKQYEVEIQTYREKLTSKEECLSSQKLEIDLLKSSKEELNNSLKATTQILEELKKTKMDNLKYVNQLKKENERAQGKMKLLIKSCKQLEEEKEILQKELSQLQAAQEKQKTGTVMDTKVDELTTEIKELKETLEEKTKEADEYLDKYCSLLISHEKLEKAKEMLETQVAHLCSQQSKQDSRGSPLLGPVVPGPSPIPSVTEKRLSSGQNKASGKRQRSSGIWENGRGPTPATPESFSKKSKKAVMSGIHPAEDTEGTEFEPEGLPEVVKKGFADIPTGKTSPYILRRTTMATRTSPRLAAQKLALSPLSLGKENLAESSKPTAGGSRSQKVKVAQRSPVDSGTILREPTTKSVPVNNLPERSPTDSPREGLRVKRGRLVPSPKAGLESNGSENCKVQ
# UniProt Q9Y4F5, 130-150: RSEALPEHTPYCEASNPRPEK
# UniProt Q96JM3: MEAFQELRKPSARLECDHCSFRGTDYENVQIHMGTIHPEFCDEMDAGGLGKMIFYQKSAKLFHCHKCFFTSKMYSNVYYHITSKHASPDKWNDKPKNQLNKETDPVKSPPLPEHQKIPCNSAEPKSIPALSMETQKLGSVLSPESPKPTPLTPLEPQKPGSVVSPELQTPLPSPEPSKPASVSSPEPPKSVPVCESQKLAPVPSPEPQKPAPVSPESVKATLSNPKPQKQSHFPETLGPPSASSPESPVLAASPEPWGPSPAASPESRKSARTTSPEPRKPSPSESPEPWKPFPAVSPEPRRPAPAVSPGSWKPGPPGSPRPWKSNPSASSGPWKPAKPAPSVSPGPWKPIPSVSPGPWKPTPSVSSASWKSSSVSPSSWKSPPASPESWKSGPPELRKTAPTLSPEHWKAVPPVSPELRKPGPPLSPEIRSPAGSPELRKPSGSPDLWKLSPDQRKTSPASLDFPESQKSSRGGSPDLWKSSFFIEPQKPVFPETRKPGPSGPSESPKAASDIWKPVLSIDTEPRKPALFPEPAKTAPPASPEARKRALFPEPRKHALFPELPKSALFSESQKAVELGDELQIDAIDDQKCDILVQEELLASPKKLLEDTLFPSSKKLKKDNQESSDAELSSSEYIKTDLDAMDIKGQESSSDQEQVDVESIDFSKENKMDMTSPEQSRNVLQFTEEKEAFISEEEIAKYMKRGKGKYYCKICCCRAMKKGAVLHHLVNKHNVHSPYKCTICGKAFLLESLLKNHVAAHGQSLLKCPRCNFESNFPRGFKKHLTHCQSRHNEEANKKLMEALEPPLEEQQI
# UniProt Q8IW35: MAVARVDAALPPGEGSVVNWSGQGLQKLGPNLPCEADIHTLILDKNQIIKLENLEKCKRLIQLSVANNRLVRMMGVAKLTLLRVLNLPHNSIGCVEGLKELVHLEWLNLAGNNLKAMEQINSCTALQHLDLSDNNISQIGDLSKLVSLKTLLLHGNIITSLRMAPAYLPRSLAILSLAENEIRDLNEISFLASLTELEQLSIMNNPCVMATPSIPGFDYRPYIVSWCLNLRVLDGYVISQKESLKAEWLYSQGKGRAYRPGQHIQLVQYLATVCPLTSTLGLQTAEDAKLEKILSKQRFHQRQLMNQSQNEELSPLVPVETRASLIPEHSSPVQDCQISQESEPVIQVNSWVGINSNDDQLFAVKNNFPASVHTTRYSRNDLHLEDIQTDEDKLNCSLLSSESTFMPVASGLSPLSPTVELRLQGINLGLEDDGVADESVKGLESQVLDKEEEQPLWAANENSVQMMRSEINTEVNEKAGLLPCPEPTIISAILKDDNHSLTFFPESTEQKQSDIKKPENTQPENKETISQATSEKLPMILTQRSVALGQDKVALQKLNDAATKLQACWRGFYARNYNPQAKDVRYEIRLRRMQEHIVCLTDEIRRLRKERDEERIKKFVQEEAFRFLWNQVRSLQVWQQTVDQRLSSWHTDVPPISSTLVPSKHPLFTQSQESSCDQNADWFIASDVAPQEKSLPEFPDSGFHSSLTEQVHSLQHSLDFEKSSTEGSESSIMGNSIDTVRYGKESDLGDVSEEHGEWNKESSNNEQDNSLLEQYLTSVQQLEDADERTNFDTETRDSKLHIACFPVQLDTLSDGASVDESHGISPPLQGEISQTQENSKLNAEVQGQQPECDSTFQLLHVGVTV
# UniProt P48643: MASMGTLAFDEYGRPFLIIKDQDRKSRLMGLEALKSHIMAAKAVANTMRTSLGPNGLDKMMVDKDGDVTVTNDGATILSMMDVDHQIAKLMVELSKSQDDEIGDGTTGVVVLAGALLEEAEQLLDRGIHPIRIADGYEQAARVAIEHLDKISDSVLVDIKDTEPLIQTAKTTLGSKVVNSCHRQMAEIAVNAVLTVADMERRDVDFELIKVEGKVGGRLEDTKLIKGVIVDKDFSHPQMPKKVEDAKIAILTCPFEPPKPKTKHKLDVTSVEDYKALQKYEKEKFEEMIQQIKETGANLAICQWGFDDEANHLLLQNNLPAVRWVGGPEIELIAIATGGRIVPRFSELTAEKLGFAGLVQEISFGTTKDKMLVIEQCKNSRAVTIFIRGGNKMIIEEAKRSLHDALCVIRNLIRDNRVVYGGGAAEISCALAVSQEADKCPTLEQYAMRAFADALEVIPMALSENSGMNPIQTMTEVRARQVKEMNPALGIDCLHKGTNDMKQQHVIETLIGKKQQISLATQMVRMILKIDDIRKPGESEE
# UniProt Q96M89: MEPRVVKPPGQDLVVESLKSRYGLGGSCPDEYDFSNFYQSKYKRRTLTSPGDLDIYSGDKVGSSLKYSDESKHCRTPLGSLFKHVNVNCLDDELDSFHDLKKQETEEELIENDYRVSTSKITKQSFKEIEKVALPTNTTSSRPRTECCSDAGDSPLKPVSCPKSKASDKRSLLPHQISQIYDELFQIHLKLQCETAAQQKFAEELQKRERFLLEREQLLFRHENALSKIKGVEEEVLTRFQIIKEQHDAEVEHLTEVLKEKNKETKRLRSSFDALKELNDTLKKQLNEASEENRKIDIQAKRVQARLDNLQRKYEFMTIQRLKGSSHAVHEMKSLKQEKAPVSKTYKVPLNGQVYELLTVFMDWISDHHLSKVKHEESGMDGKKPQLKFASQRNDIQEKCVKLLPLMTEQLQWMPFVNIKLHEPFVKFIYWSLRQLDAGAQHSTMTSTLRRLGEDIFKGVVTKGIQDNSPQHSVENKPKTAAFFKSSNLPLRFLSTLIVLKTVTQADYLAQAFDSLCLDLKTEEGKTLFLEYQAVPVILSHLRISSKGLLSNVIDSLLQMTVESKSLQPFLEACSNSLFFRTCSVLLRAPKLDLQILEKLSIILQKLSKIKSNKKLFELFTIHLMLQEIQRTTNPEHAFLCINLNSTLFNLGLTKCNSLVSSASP
# UniProt Q6P1N0, 303-346: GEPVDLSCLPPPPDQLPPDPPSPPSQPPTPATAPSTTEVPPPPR
# This is one part of the list. The data scatter; read single values as rough.
# Compound: ClCC(=O)N[C@@H]1CCCc2ccccc12
# Assay: log2 mean competition ratio of IA-DTB cysteine labelling (DMSO/compound) (log2 ratio); higher = stronger cysteine engagement by compound
# Conditions: 50 µM; treatment time: 4 h; cell line lysate: HEK293T
# Protocol: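 IA-DTB competitive cysteine chemoproteomics in HEK293T RIPA lysate. Lysates were treated with compound 29 or 30 at 50 or 200 µM for 4 h, then IA-DTB (500 µM, 1 h), trypsin-digested, NeutrAvidin-enriched and analysed by diaPASEF. Competition ratio = intensity DMSO / intensity compound (n=4 treated, n=64 DMSO); binding: mean log2 CR ≥ 1 and p ≤ 0.05 plus QC filters. Target is the cysteine site.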
row,Target,log2 mean competition ratio
1,CHD1 C411 (UniProt O14646),-0.153
2,CEP44 C28 (UniProt Q9C0F1),-0.12
3,"CCDC59_(C128,C128,C139,C139,C150,C150) (UniProt Q9P031)",-0.0677
4,CCDC74A;CCDC74B C241;(C241),0.442
5,CFAP97 C27 (UniProt Q9P2B7),-0.267
6,CCT4 C450 (UniProt P50991),0.173
7,CCT7 C345 (UniProt Q99832),-0.129
8,CENPF C1233 (UniProt P49454),-0.102
9,CDK17 C233 (UniProt Q00537),-0.139
10,CCT2 C535 (UniProt P78371),-0.0082
11,CEP170B C141 (UniProt Q9Y4F5),-0.0947
12,CHAMP1 C194 (UniProt Q96JM3),-0.0805
13,CENPM C98 (UniProt Q9NSP4),-0.119
14,CEP44 C355 (UniProt Q9C0F1),-0.274
15,CEP350 C966 (UniProt Q5VT06),-0.191
16,CENPF C722 (UniProt P49454),-0.00697
17,CERS5 C369 (UniProt Q8N5B7),0.373
18,CHD3 C1838 (UniProt Q12873),-0.0435
19,CCDC85C C389 (UniProt A6NKD9),0.0901
20,CDC25C C330 (UniProt P30307),-0.281
21,CCP110 C436 (UniProt O43303),0.0229
22,CEP97 C94 (UniProt Q8IW35),0.18
23,CCT5 C493 (UniProt P48643),0.218
24,CCDC138 C193 (UniProt Q96M89),0.0278
25,CC2D1A C310 (UniProt Q6P1N0),-0.297

# At a glance, some entries already given.
row,Target,log2 mean competition ratio
9,CDK17 C233 (UniProt Q00537),-0.139
10,CCT2 C535 (UniProt P78371),-0.0082
